Data reported in article doi:10.1101/2020.04.09.033621.
Substitutions are numbered along the chain they refer to. Results are given in words; binding and its absence hold for the method and conditions named. Binding seen in cells or lysates may run through a third protein. Some binding calls cover weakened binding; strength is not graded here. For some assays here: Where a sequence is shown, tags or fusion partners need not be part of it.

Chains of the proteins cited; added tags and fusions are not shown.
UniProt Q9Y6Q9: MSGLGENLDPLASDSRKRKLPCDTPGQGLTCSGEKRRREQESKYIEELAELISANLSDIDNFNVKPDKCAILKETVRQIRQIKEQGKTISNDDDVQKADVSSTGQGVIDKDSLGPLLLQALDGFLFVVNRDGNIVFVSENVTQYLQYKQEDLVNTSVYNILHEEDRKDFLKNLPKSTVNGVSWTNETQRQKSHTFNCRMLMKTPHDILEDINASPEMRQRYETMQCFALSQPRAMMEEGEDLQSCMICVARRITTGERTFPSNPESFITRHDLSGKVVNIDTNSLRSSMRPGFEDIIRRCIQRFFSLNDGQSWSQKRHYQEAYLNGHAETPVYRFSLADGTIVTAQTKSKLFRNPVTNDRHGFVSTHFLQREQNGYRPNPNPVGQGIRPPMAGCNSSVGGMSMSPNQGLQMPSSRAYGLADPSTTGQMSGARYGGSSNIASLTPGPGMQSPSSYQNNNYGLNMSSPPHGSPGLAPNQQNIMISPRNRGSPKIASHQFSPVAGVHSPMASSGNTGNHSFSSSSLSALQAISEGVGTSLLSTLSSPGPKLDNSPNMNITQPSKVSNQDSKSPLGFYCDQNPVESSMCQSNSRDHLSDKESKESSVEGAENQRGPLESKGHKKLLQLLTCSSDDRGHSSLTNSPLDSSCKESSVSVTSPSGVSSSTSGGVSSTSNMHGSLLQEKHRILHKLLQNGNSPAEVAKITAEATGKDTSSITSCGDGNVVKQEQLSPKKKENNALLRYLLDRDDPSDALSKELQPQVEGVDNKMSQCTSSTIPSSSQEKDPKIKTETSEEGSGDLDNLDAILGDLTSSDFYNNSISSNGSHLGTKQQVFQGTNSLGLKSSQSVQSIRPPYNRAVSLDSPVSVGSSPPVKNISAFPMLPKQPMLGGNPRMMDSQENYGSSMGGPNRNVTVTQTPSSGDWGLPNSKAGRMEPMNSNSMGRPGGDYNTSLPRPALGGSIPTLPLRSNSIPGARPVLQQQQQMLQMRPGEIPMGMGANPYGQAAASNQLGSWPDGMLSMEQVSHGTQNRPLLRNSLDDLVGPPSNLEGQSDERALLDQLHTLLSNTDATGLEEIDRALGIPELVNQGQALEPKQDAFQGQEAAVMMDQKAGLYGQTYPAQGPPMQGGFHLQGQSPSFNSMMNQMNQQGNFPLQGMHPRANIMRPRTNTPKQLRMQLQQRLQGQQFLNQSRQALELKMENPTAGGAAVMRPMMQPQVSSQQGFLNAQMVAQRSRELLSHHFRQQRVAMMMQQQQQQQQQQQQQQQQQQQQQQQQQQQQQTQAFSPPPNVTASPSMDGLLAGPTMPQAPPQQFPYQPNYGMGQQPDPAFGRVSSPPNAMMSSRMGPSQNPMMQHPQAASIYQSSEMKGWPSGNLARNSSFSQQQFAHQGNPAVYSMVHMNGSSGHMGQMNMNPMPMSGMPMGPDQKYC
UniProt Q92831: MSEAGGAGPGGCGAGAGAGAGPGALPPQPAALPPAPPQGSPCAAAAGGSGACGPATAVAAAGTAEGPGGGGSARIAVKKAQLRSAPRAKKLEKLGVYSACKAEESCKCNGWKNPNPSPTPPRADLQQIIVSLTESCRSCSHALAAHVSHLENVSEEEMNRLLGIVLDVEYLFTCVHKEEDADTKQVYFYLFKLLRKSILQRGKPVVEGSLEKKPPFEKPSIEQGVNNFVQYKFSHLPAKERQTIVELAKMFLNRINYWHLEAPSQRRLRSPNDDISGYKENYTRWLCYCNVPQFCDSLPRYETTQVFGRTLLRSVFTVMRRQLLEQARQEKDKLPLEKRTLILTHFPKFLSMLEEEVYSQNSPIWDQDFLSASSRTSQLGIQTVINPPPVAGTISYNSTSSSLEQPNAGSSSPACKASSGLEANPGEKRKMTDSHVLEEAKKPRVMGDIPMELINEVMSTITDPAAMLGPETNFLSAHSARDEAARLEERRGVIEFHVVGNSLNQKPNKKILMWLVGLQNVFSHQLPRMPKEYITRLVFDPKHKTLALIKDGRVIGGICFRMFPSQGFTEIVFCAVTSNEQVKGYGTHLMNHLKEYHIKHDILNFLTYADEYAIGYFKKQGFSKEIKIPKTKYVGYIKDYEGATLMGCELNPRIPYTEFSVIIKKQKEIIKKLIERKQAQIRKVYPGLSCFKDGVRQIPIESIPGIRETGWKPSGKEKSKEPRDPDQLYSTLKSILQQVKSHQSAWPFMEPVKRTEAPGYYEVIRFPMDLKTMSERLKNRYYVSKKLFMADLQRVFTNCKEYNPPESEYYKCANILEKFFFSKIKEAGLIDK
UniProt Q9UM11: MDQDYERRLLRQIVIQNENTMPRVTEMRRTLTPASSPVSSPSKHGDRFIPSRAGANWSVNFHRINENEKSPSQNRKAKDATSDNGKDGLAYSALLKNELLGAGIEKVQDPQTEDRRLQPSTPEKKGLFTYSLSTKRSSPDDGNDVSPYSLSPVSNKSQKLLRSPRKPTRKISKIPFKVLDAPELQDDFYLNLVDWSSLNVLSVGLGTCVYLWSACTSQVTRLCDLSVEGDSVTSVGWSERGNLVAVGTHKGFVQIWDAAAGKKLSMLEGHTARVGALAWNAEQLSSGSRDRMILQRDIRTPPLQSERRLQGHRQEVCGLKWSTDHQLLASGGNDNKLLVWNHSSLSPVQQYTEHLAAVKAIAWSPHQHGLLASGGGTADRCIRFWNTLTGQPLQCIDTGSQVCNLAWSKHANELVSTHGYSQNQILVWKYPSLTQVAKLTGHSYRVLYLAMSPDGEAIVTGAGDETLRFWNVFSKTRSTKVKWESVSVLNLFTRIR

Experiments:
Experiment in all cases: co-IP
[1] = molecular target: T1, Myc-UHRF1^KEN:AAA (human) (UniProt Q96T88)
T1 sequence: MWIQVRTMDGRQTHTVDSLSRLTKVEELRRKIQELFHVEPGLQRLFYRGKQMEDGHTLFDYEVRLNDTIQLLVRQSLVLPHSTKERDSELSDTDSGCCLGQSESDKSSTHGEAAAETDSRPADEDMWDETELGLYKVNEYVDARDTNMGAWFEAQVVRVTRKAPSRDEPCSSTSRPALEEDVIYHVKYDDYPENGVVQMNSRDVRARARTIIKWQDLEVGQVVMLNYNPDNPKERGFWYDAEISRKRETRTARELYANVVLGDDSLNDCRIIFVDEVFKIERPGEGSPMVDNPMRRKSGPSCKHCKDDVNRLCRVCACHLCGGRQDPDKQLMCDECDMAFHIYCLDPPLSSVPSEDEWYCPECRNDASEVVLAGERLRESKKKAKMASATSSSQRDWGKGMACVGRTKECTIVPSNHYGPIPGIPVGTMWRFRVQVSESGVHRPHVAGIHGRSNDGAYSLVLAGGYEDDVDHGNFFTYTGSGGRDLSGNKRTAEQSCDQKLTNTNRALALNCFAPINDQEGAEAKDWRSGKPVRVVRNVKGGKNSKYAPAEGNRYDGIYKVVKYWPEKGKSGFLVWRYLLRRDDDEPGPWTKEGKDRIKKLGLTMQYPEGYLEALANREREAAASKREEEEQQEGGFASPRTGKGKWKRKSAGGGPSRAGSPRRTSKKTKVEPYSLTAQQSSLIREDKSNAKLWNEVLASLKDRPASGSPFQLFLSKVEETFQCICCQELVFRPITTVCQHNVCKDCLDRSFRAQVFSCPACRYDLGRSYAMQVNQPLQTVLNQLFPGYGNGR

[2] = molecular target: FLAG-NCOA3 (human) (UniProt Q9Y6Q9)
[3] = molecular target: FLAG-PCAF (human) (UniProt Q92831)
[4] = molecular target: T2, FLAG-TTF2 (human) (UniProt Q9UNY4)
T2 sequence: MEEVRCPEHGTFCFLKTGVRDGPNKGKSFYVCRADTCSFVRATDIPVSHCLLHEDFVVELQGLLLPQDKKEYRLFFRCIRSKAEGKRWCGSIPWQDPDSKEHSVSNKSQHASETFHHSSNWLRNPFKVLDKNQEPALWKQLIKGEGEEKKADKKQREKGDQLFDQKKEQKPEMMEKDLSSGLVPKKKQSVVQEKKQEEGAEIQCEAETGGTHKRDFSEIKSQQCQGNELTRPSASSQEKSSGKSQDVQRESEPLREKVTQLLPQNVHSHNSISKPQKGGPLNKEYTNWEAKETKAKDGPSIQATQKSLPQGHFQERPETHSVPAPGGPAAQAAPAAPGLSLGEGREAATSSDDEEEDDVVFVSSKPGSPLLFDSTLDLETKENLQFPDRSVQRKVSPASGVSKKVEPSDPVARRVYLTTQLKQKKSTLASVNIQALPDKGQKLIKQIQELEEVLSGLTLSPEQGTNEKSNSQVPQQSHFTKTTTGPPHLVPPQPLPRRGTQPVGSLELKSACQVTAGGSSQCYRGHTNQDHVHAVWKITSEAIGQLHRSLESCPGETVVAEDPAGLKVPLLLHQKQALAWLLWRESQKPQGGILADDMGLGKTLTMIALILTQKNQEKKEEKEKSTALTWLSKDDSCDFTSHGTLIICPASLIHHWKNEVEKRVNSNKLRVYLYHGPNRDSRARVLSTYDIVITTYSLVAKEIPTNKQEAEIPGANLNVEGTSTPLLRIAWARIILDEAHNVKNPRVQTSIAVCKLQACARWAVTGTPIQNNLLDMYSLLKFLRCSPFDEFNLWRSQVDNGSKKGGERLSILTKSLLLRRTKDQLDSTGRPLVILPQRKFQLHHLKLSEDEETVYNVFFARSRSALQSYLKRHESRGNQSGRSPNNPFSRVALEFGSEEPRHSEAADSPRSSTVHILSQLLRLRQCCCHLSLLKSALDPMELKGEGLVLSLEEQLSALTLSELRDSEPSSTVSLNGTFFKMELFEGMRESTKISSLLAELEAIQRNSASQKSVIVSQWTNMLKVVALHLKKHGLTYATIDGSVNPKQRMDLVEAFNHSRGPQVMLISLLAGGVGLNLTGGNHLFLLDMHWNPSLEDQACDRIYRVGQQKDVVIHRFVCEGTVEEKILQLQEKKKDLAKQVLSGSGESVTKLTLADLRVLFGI

[5] = molecular target: T3, Myc-UHRF1^WT (human) (UniProt Q96T88)
T3 sequence: T1 sequence with A622K, A623E, A624N

Measured: binding

HA-Cdh1 (from UniProt Q9UM11 1-496)
binds: all assays above
